In PMC11218372:
No constants are given. Whether binding was seen depends on the method and setting.

Molecular target: CA6-SazCAtrunc, carbonic anhydrase from Sulfurihydrogenibium azorense, truncated form (Sulfurihydrogenibium azorense) (UniProt C1DTU5)
Test: SEC; Superdex 75 (26/60), 20 mM Tris pH 7.5, 150 mM NaCl, after His-tag affinity chromatography; both purified

B1: CA6-SazCAtrunc, carbonic anhydrase from Sulfurihydrogenibium azorense, truncated form (enzyme, UniProt C1DTU5 27-254)
chain: AEVHHWSYEGENGPENWAKLNPEYFWCNLKNQSPVDISDNYKVHAKLEKLHINYNKAVNPEIVNNGHTIQVNVLEDFKLNIKGKEYHLKQFHFHAPSEHTVNGKYYPLEMHLVHKDKDGNIAVIGVFFKEGKANPELDKVFKNALKEEGSKVFDGSININALLPPVKNYYTYSGSLTTPPCTEGVLWIVLKQPITASKQQIELFKSIMKHNNNRPTQPINSRYILESN
Question: B1 was tested. Which binding did it give?
Answer: no binding
